Measurements reported in PubChem BioAssay AID1159584 (Peter MacCallum Cancer Centre, 2016)
The whole screen tested about 18,000 reagents; below is an unselected part. Not all columns of the deposit are shown. Reagent sequences are not shown. Not stated in the record: the amount of reagent, the time to read-out.

- Purpose: 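Knock-downs that harm CDH1-null cells more than parental MCF10A cells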 (primary screen)
- Cell system: human MCF10A breast epithelial cells, parental and CDH1-null
- Reagents: siRNA against human genes
- Detection: 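Cell viability by CellTiter-Glo ATP luminescence, each line scaled to the mean of mock wells across plates, then CDH1-null over parental ratio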
- Scale: CDH1-null / parental viability ratio: higher = CDH1-null cells survive relatively better than parental; CDH1-null viability vs mock: higher = more viable CDH1-null cells

For ZNF780B the deposit lists CDH1-null / parental viability ratio 0.95; CDH1-null viability vs mock (fraction of mock) = 0.94.
FAM171A1 scored CDH1-null / parental viability ratio 1.09; CDH1-null viability vs mock (fraction of mock) = 1.
Depletion of RUNDC1 came out at: CDH1-null / parental viability ratio 1.23; CDH1-null viability vs mock (fraction of mock) = 1.46.
With knock-down of HPGD, the screen gave CDH1-null / parental viability ratio 0.75; CDH1-null viability vs mock (fraction of mock) = 0.69.
After knock-down of NDUFA2, the record shows CDH1-null / parental viability ratio 0.86; CDH1-null viability vs mock (fraction of mock) = 0.78.
After knock-down of DBNDD1, the screen gave CDH1-null / parental viability ratio 0.98; CDH1-null viability vs mock (fraction of mock) = 0.59.
CBR1 showed CDH1-null / parental viability ratio 0.97; CDH1-null viability vs mock (fraction of mock) = 0.7.
ARPC5 gave CDH1-null / parental viability ratio 1.29; CDH1-null viability vs mock (fraction of mock) = 1.06.
Depletion of RPS7 came out at: CDH1-null / parental viability ratio 1.43; CDH1-null viability vs mock (fraction of mock) = 0.4.
Knock-down of TSR2 resulted in: CDH1-null / parental viability ratio 0.84; CDH1-null viability vs mock (fraction of mock) = 0.52.
LCMT2 showed CDH1-null / parental viability ratio 1.21; CDH1-null viability vs mock (fraction of mock) = 1.1.
Against ACTL10 the deposit lists CDH1-null / parental viability ratio 1.31; CDH1-null viability vs mock (fraction of mock) = 0.42.
For TAS2R4 the deposit lists CDH1-null / parental viability ratio 0.81; CDH1-null viability vs mock (fraction of mock) = 0.52.
After knock-down of LRRN2, the screen gave CDH1-null / parental viability ratio 0.71; CDH1-null viability vs mock (fraction of mock) = 0.44.
For PRPH2 the deposit lists CDH1-null / parental viability ratio 0.84; CDH1-null viability vs mock (fraction of mock) = 0.64.
Against ZNF585B the deposit lists CDH1-null / parental viability ratio 1.39; CDH1-null viability vs mock (fraction of mock) = 0.5.
FAM117A showed CDH1-null / parental viability ratio 1.35; CDH1-null viability vs mock (fraction of mock) = 0.84.
TOX4 gave CDH1-null / parental viability ratio 1.08; CDH1-null viability vs mock (fraction of mock) = 0.7.
EIF2AK3 scored CDH1-null / parental viability ratio 1.04; CDH1-null viability vs mock (fraction of mock) = 1.
With knock-down of GPC1, the screen gave CDH1-null / parental viability ratio 0.9; CDH1-null viability vs mock (fraction of mock) = 0.45.
Knock-down of AKAP14 resulted in: CDH1-null / parental viability ratio 1; CDH1-null viability vs mock (fraction of mock) = 0.8.
OR1L8 showed CDH1-null / parental viability ratio 1.17; CDH1-null viability vs mock (fraction of mock) = 1.05.
For HERPUD1 the deposit lists CDH1-null / parental viability ratio 1.18; CDH1-null viability vs mock (fraction of mock) = 0.9.

Part of the list above, reformatted:
Gene,CDH1-null / parental viability ratio,CDH1-null viability vs mock (fraction of mock)
PRPH2,0.84,0.64
ZNF585B,1.39,0.5
FAM117A,1.35,0.84
TOX4,1.08,0.7
EIF2AK3,1.04,1
GPC1,0.9,0.45
AKAP14,1,0.8

Continued:
Against GNPTAB, the entry reads CDH1-null / parental viability ratio 1.06; CDH1-null viability vs mock (fraction of mock) = 1.02.
RAB44 gave CDH1-null / parental viability ratio 1.12; CDH1-null viability vs mock (fraction of mock) = 0.85.
Against PSEN1 the deposit lists CDH1-null / parental viability ratio 1.07; CDH1-null viability vs mock (fraction of mock) = 0.76.
TADA3 gave CDH1-null / parental viability ratio 0.85; CDH1-null viability vs mock (fraction of mock) = 0.93.
RERG scored CDH1-null / parental viability ratio 1.24; CDH1-null viability vs mock (fraction of mock) = 1.09.
Against CHRNB3, the entry reads CDH1-null / parental viability ratio 1.16; CDH1-null viability vs mock (fraction of mock) = 1.14.
Against BMX, the values are CDH1-null / parental viability ratio 1.12; CDH1-null viability vs mock (fraction of mock) = 0.9.
Depletion of SLC38A4 gave: CDH1-null / parental viability ratio 1.05; CDH1-null viability vs mock (fraction of mock) = 0.86.
Silencing of WDR62 came out at: CDH1-null / parental viability ratio 0.79; CDH1-null viability vs mock (fraction of mock) = 0.41.
SARS2 gave CDH1-null / parental viability ratio 0.64; CDH1-null viability vs mock (fraction of mock) = 0.36.
After knock-down of VAV3, the screen gave CDH1-null / parental viability ratio 0.94; CDH1-null viability vs mock (fraction of mock) = 0.98.
Against TMEM216, the values are CDH1-null / parental viability ratio 0.89; CDH1-null viability vs mock (fraction of mock) = 0.75.
Against ITGB3, the entry reads CDH1-null / parental viability ratio 0.85; CDH1-null viability vs mock (fraction of mock) = 0.56.
After knock-down of F8A2 the results were CDH1-null / parental viability ratio 0.85; CDH1-null viability vs mock (fraction of mock) = 0.56.
With knock-down of POU4F2 the results were CDH1-null / parental viability ratio 1.12; CDH1-null viability vs mock (fraction of mock) = 1.12.
LACC1 gave CDH1-null / parental viability ratio 1.31; CDH1-null viability vs mock (fraction of mock) = 0.84.
Against PAGE2, the values are CDH1-null / parental viability ratio 1.07; CDH1-null viability vs mock (fraction of mock) = 0.92.
CDK18 showed CDH1-null / parental viability ratio 0.88; CDH1-null viability vs mock (fraction of mock) = 0.58.
Silencing of INKA2 gave: CDH1-null / parental viability ratio 0.81; CDH1-null viability vs mock (fraction of mock) = 0.44.
For PYCR2 the deposit lists CDH1-null / parental viability ratio 1.09; CDH1-null viability vs mock (fraction of mock) = 0.58.
With knock-down of SUV39H1 the results were CDH1-null / parental viability ratio 1.02; CDH1-null viability vs mock (fraction of mock) = 0.83.
For SURF4, the values are CDH1-null / parental viability ratio 0.93; CDH1-null viability vs mock (fraction of mock) = 0.66.
